Molecules are shown by their SMILES. The list does not hold the whole screen: it gathers tests that were run many times, whatever their T/C, doses with no T/C, and many T/C values between a quarter and a half above the control. Further doses and runs are listed elsewhere. T/C: endpoint of the treated group in % of that of the vehicle group. Schedule codes are those of the source, read here as Q, the interval in days (D) or hours (H), X, the number of doses. Some T/C values are followed by the survivors on the day toxicity was checked, most often the fifth; where none is given, no animal had died by that day. Some doses were run more than once; the values are given in rising order. Some values lie below zero, which means that the treated tumours became smaller. Some entries give survivors of the animals treated and no T/C: the source holds a T/C of zero for them, seemingly a mark for toxic or unscored doses. Counts of survivors are from the toxicity check (mostly the fifth day) where no day follows; animals may have died later.

The assay has as its system nude mice, A549 intrarenal xenograft, tumor weight change. Briefly: NCI In Vivo Anticancer Drug Screen. Data for tumor model A549 Human Adenocarcinoma of Lung with characteristics of Type II Alveolar Epithelial cells (intrarenal inoculation) in NU/NU BALB/C (nude) mice. As to conditions: T/C endpoint: mean tumor weight change, higher T/C = larger tumour; for T/C: evaluated on day 12. The procedure: The antitumor activity of compounds was measured in mice bearing transplantable tumors. Survival or tumor size were measured and the results are expressed as the measurement made in the treated group (T) divided by the measurement made in the vehicle treated control group (C). The tumor model used in this assay is A549 Human Adenocarcinoma of Lung with characteristics of Type II Alveolar Epithelial cells (intrarenal inoculation) in NU/NU BALB/C (nude) mice

Where [1] appears, read: dose: 600.0 mg/kg/injection, schedule: Q04DX003 (ip), vehicle: distilled water + Tween-80 + alcohol.
Where [2] appears, read: dose: 75.0 mg/kg/injection, schedule: Q04DX003 (ip), vehicle: saline.
The mark [3] stands for this setting: dose: 112.0 mg/kg/injection, schedule: Q04DX003 (ip), vehicle: saline.
The mark [4] stands for this setting: dose: 1200.0 mg/kg/injection, schedule: Q04DX003 (ip), vehicle: distilled water + alcohol.
Setting [5] is: dose: 800.0 mg/kg/injection, schedule: Q04DX003 (ip), vehicle: saline with Tween-80.

Regarding `S=C1CCCCN1`, the survivor count (dose: 300.0 mg/kg/injection, schedule: Q04DX003 (ip), vehicle: distilled water + Tween-80 + alcohol) is recorded as 0 of 6 on day 12 and the survivor count under setting [1] is 0 of 6 on day 12.
With `CC1=CCCC2C1(C)CCC(C)C2(C)Cc1cc(O)ccc1O` (stereo unspecified), where the note is “dose: 100.0 mg/kg/injection, schedule: Q04DX003 (ip), vehicle: Klucel (hydroxypropylcellulose) (HPC)”, the T/C was 129 % of control.
Turning to `CO[C@@H]1C2=CC=CC=C[C@H]2n2c(=O)n(C)c(=O)n21`, the survivor count runs as follows: (dose: 300.0 mg/kg/injection, schedule: Q04DX003 (ip), vehicle: other) 3 of 6 on day 12; (dose: 300.0 mg/kg/injection, schedule: Q04DX003 (ip), vehicle: water) 2 of 6 on day 12; (dose: 600.0 mg/kg/injection, schedule: Q04DX003 (ip), vehicle: other) 0 of 6 on day 12.
For `O=c1[nH]cc(F)c(=O)[nH]1`, the T/C runs as follows: (dose: 50.0 mg/kg/injection, schedule: Q04DX003 (ip), vehicle: saline) 20 [4 of 5 alive on day 12], 35, 37, 51, 63 % of control [5 of 6 alive on day 12]; under setting [2], 12, 16, 20 % of control [4 of 6 alive on day 12]; under setting [3], 20 % of control [4 of 6 alive on day 12]. Also, the survivor count by setting is: under setting [2], 3 of 6 on day 12; under setting [3], 1 of 6 on day 12 and 3 of 6 on day 12.
Take `Cc1nc(C(Cl)(Cl)Cl)[nH]c(=O)c1SCCO`: the T/C under setting [1] is 141 % of control [4 of 6 alive on day 12]. For the same compound, the survivor count is, setting by setting: (dose: 1200.0 mg/kg/injection, schedule: Q04DX003 (ip), vehicle: distilled water + Tween-80 + alcohol) 0 of 6 on day 12; under setting [4], 0 of 6 on day 12.
Regarding `COc1cc(C(C)c2cc3c(cc2OCCO)OCO3)cc(OC)c1OC` (stereo unspecified), the survivor count (dose: 500.0 mg/kg/injection, schedule: Q04DX003 (ip), vehicle: suspension in saline) is recorded as 3 of 6 on day 12 and the survivor count (dose: 1000.0 mg/kg/injection, schedule: Q04DX003 (ip), vehicle: suspension in saline) was 0 of 6 on day 12.
For the compound `O=NN(CCCl)C(=O)NCCCl`, the T/C is -19, 3, 7, 30, 52 [5 of 6 alive on day 12], 68 % of control [5 of 6 alive on day 12] (dose: 12.0 mg/kg/injection, schedule: Q04DX003 (ip), vehicle: saline + alcohol); 2 [5 of 6 alive on day 12], 4, 9, 26 [4 of 5 alive on day 12], 32, 49 % of control (dose: 18.0 mg/kg/injection, schedule: Q04DX003 (ip), vehicle: saline + alcohol); -41, -15, 13, 15, 45 [5 of 6 alive on day 12], 50 % of control (dose: 27.0 mg/kg/injection, schedule: Q04DX003 (ip), vehicle: saline + alcohol).
Consider `c1ccc(OCC2CO2)c(OCC2CO2)c1` (stereo unspecified), for which, where the note is “dose: 600.0 mg/kg/injection, schedule: Q04DX003 (ip), vehicle: saline with Tween-80”, the survivor count was 2 of 6 on day 12.
In the case of `c1cn[nH]c1`, the T/C (dose: 150.0 mg/kg/injection, schedule: Q04DX003 (ip), vehicle: saline) was 136 % of control. Also, the survivor count is recorded as 3 of 6 on day 12 (dose: 270.0 mg/kg/injection, schedule: Q04DX003 (ip), vehicle: saline); 0 of 6 on day 12 (dose: 360.0 mg/kg/injection, schedule: Q04DX003 (ip), vehicle: saline); 1 of 6 on day 12 (dose: 379.0 mg/kg/injection, schedule: Q04DX003 (ip), vehicle: saline); 1 of 6 on day 12 (dose: 506.0 mg/kg/injection, schedule: Q04DX003 (ip), vehicle: saline); 2 of 6 on day 12 (dose: 600.0 mg/kg/injection, schedule: Q04DX003 (ip), vehicle: saline); 0 of 6 on day 12 (dose: 675.0 mg/kg/injection, schedule: Q04DX003 (ip), vehicle: saline). Further, the survivor count is given as 0 of 6 on day 12 (dose: 900.0 mg/kg/injection, schedule: Q04DX003 (ip), vehicle: saline) and 0 of 6 on day 12 (dose: 1200.0 mg/kg/injection, schedule: Q04DX003 (ip), vehicle: saline).
On to `CN=C(N)c1ccc(N=C(N)c2ccc(C(N)=Nc3ccc(C(N)=NC)cc3)cc2)cc1`, for which the survivor count reads like this: (dose: 30.0 mg/kg/injection, schedule: Q06HX010 (ip), vehicle: water) 0 of 6 on day 12; (dose: 45.0 mg/kg/injection, schedule: Q06HX010 (ip), vehicle: water) 0 of 6 on day 12.
`CCOc1cc2c(cc1C(C)c1ccc(OC)cc1)OCO2` (stereo unspecified): the survivor count runs as follows: (dose: 300.0 mg/kg/injection, schedule: Q04DX003 (ip), vehicle: distilled water + alcohol) 1 of 6 on day 12; (dose: 600.0 mg/kg/injection, schedule: Q04DX003 (ip), vehicle: distilled water + alcohol) 0 of 6 on day 12; under setting [4], 0 of 6 on day 12.
For the compound `Cc1nc2c(N)cc(Cl)cc2[nH]1`, the survivor count is on record as 0 of 6 on day 12 (dose: 400.0 mg/kg/injection, schedule: Q04DX003 (ip), vehicle: saline with Tween-80) and 0 of 6 on day 12 under setting [5].
Turning to `CC(C)N1C(=O)N(Cl)C2C1N(Cl)C(=O)N2Cl` (stereo unspecified), the survivor count (dose: 25.0 mg/kg/injection, schedule: Q04DX003 (ip), vehicle: saline with Tween-80) was 1 of 5 on day 12.
With `NC(=S)N/N=C/c1ccc(O)cn1`, the survivor count under setting [5] is 3 of 6 on day 12.
As for `CCN(CC)CC(C)(C)C(=O)/C=C/c1ccc(/C=C/C(=O)C(C)(C)CN(CC)CC)cc1`, where the note is “dose: 120.0 mg/kg/injection, schedule: Q04DX003 (ip), vehicle: saline”, the survivor count is on record as 0 of 6 on day 12.
`Nc1ccc2ccc(N)cc2c1`: where the note is “dose: 50.0 mg/kg/injection, schedule: Q04DX003 (ip), vehicle: saline with Tween-80”, the T/C is 135 % of control.
For `CCCCCNc1ncnc2c(C)[nH]nc12`, the survivor count (dose: 300.0 mg/kg/injection, schedule: Q04DX003 (ip), vehicle: Klucel (hydroxypropylcellulose) (HPC)) is 0 of 6 on day 12.
In the case of `Cc1ccc(C(=O)Nc2ccc(S(=O)(=O)O)c3cc(S(=O)(=O)O)cc(S(=O)(=O)O)c23)cc1NC(=O)c1cccc(NC(=O)Nc2cccc(C(=O)Nc3cc(C(=O)Nc4ccc(S(=O)(=O)O)c5cc(S(=O)(=O)O)cc(S(=O)(=O)O)c45)ccc3C)c2)c1`, the T/C (dose: 200.0 mg/kg/injection, schedule: Q04DX003 (ip), vehicle: saline) was 142 % of control.
As for `CC1(O)C=CC(=O)C=C1`, the T/C (dose: 12.5 mg/kg/injection, schedule: Q04DX003 (ip), vehicle: water) was 129 % of control. Further, under “dose: 100.0 mg/kg/injection, schedule: Q04DX003 (ip), vehicle: water”, the survivor count was 1 of 6 on day 12.
As for `COc1cc2c[n+](C)c3c(c2cc1OC)Cc1cc2c(cc1-3)OCO2`, the survivor count (dose: 300.0 mg/kg/injection, schedule: Q04DX003 (ip), vehicle: saline with Tween-80) was 0 of 6 on day 12.
As to `CN=C(NC)c1ccc(NC(=O)/C=C\c2ccc(/C=C/C(=O)Nc3ccc(C(=NC)NC)cc3)cc2)cc1`, the survivor count (dose: 25.0 mg/kg/injection, schedule: Q04DX003 (ip), vehicle: Klucel (hydroxypropylcellulose) (HPC)) is given as 0 of 6 on day 12.

The values are drawn from PubChem BioAssay AID278 (DTP/NCI, 2004).
